In paper PMC13109126:
No constants are given. Whether binding was seen depends on the method and setting. Binding seen in cells or lysates may run through a third protein. Some binding calls cover weakened binding; strength is not graded here. Where a sequence is shown, tags or fusion partners need not be part of it.

Biological target: T1, PYR1-like 8 (PYL8) fused to cLUC (Arabidopsis thaliana) (UniProt Q9FGM1)
T1 sequence: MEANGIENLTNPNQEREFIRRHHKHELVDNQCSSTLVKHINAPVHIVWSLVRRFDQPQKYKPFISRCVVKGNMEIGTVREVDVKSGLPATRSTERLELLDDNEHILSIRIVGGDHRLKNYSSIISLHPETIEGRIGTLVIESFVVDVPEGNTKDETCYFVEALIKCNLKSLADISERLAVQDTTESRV
Assay: split reporter; split firefly luciferase complementation (SplitLUC) in N. benthamiana leaves co-infiltrated with nLUC and cLUC fusions and TagRFP; 5 mM D-luciferin sprayed, luminescence imaged with NightSHADE evo CCD (20 s exposure); luminescence normalised to TagRFP fluorescence, n = 6 leaves

binding: binds
B1: DET1- and DDB1-ASSOCIATED 1 (DDA1) fused to nLUC (protein, UniProt Q9FFS4 1-101)
chain: MASILGDLPSFDPHNFSQHRPSDPSNPSKMVPTTYRPTHNRTLPPPDQVITTEVKNILIRSFYQRAEEKLRPKRPATDHLAAEHVNKHFRAASSSSSTQGL
